# PubChem BioAssay AID1671190 (National Center for Advancing Translational Sciences (NCATS), 2021)
# Sequences of proteins named here, by UniProt entry; tags and fusion partners are left off.
# UniProt P18054, whole entry, looked up: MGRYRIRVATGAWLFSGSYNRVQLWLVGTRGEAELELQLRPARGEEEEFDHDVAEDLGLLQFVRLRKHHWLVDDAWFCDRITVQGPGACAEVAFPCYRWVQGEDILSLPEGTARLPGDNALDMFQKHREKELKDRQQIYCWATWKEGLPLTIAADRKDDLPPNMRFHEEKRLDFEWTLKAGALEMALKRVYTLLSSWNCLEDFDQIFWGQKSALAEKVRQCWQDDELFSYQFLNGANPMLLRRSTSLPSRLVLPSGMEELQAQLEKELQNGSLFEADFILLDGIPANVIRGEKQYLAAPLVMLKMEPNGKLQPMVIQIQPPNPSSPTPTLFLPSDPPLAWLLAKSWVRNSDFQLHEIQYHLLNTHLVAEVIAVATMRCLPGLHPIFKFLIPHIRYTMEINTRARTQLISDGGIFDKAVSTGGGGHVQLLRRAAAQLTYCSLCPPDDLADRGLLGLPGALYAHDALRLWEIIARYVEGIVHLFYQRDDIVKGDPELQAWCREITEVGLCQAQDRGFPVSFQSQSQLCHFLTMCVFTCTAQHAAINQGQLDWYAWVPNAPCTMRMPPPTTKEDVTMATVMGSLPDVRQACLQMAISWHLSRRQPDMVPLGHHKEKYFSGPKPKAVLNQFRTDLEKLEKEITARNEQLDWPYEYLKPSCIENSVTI
# Hit rate of the full screen: of about 580,000 compounds, about 6,100 (1.1%) were called active. About 15% were inconclusive and are not listed. Calls come from the whole dose curve; as a rule, active = well fitted inhibition curve with a large enough effect; inconclusive = small, poorly fitted or top-dose-only effect, or another doubt; inactive = no such curve, though single readings can be large or run the other way. The entries are a selection whose mix differs from that of the whole data set. Where no call is shown, the source filed none.
# Biological target: Polyunsaturated fatty acid lipoxygenase ALOX12 (Homo sapiens) (UniProt P18054)
# Test: Primary qHTS assay for inhibitors of human arachidonate 12S-lipoxygenase (ALOX12): Round 2
# Conditions: purified 12hLO, xylenol orange hydroperoxide absorbance; activity change, negative = inhibition: at 0.00344 µM (top of the series) unless noted
# Outline: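 Purified human 12hLO (150 nM final) in 25 mM Hepes, 0.01% Triton X-100, pH 7.0 was preincubated 15 min at room temperature with compound. Then 40 uM arachidonic acid was added, 30 min. Hydroperoxide was read by Fe-XO absorbance ratio 573/405 nm.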
# % is set by controls: 0 for no effect and ±100 for the full control effect; potency is the fitted concentration of half-maximal effect.
Structure (SMILES),Potency,"activity change, negative = inhibition [%]"
CC(C1CC2CCC1C2)n1c(-c2cccs2)n[nH]c1=S (stereo not given),active: 44.7 µM,–
COC(=O)c1ccc(O)cc1,–,-6.59
C[C@@H]1C[C@H]2[C@@H]3C[C@H](F)C4=CC(=O)C(Cl)=C[C@]4(C)[C@@]3(F)[C@@H](O)C[C@]2(C)[C@@]1(O)C(=O)CO,–,-44.5
O=C(/C=C/c1ccc(-c2ccccc2Cl)o1)c1ccccc1Br,active: 4.47 µM,–
N#C/C(=C/c1ccc(N2CCOCC2)o1)c1ccc(Cl)cc1,active: 7.94 µM,–
CCN(C)C(=O)Oc1cccc([C@H](C)N(C)C)c1,–,18.7
O=C(NCC1CN(c2ccc(N3CCOCC3=O)cc2)C(=O)O1)c1ccc(Cl)s1 (stereo not given),–,19.7
C=CCSc1nc2sc3c(c2c(=O)n1CC)CCc1ccccc1-3,active: 7.08 µM,–
COC(=O)C(c1ccccc1Cl)N1CCc2sccc2C1 (stereo not given),–,-18.4
CC1(C)C(c2ccccc2)=NC(c2ccc(Br)cc2)N1O (stereo not given),active: 7.94 µM,–
CCOCC(O)COc1ccc(NC(=O)CC[S+](C)C)cc1 (stereo not given),–,-2.59
CCOc1ccccc1O[C@H](c1ccccc1)[C@H]1CNCCO1,–,6.64
O=S(=O)(O)c1ccc2nc(-c3ccccc3)[nH]c2c1,–,-34.9
CC(C)n1c(CSCc2ccc(Cl)cc2Cl)n[nH]c1=S,active: 44.7 µM,–
Cc1ccc(C(NC(=O)C2CCN(CCOc3ccc(Cl)cc3Cl)CC2)c2ccccn2)cc1 (stereo not given),active: 56.2 µM,–
CC12CCC(CC1)C(C)(C)O2,–,-36.5
CC(=O)Nc1ncc([N+](=O)[O-])s1,–,-4.85
O=C(O)COC(=O)Cc1ccccc1Nc1c(Cl)cccc1Cl,–,-6.88
O=c1[nH]c(NNC(=S)NCc2ccccc2)nc2c1C1(CCCCC1)Cc1ccccc1-2,active: 35.5 µM,–
OC1(c2ccc(Cl)c(C(F)(F)F)c2)CCN(CCCC(c2ccc(F)cc2)c2ccc(F)cc2)CC1,–,-11.3
CC1CCCC(NC(=S)NC(=O)c2ccco2)C1C (stereo not given),active: 31.6 µM,–
O=C(NC(=S)Nc1cccc(O)c1)C12CC3CC(CC(C3)C1)C2,active: 22.4 µM,–
CC1(C)O[C@@H]2C[C@H]3[C@@H]4CCC5=CC(=O)C=C[C@]5(C)[C@@]4(F)[C@@H](O)C[C@]3(C)[C@]2(C(=O)CO)O1,–,23.4
O=C(O)c1ccc(-n2cccc2/C=N\NC(=O)c2cc3cc(Br)ccc3o2)cc1,active: 35.5 µM,–
Cc1cnc(NC(=O)C2=C(O)c3ccccc3S(=O)(=O)N2C)s1,–,46.3

Structure (SMILES),Potency,"activity change, negative = inhibition [%]"
O=C(O)CCCc1ccccc1,–,16.9
COc1cc(/C=C(/C#N)C(=O)c2c(Cl)cccc2Cl)cc(OC)c1,active: 28.2 µM,–
C1CCN2C[C@@H]3C[C@@H](CN4CCCC[C@@H]34)[C@H]2C1,–,20.2
Brc1ccc2nc(-c3ccco3)c(CC3CCCCC3)n2c1,active: 15.8 µM,–
CCN1CCC[C@H]1CNC(=O)c1c(OC)ccc(Br)c1OC,–,28.2
CCCCCNC(=O)C(C1CC1)n1c(=O)c(-c2ccco2)nc2ccccc21 (stereo not given),active: 35.5 µM,–
Oc1ccc(OCc2ccccc2)cc1,–,15.8
CO[C@@]12[C@H](COC(N)=O)C3=C(C(=O)C(C)=C(N)C3=O)N1C[C@@H]1N[C@@H]12,–,9.48
Cc1ccc(Cl)c(Nc2ccccc2C(=O)O)c1Cl,–,51.8
CCN1CCN(C(=O)N[C@@H](C(=O)N[C@@H]2C(=O)N3C(C(=O)O)=C(CSc4nnnn4C)CS[C@H]23)c2ccc(O)cc2)C(=O)C1=O,–,12.6
COCCOC(=O)C1=C(C)NC(C)=C(C(=O)OC/C=C/c2ccccc2)C1c1cccc([N+](=O)[O-])c1 (stereo not given),–,26.3
O=S1(=O)OC(c2ccc(O)cc2)(c2ccc(O)cc2)c2ccccc21,–,-3.7
CCCCNc1ccc(C(=O)OCCOCCOCCOCCOCCOCCOCCOCCOCCOC)cc1,–,-26
COc1cc2c(cc1OC)CN(C(=O)[C@H](C)N[C@@H](CCc1ccccc1)C(=O)O)[C@H](C(=O)O)C2,–,-37.9
O=C(O)C(S)C(S)C(=O)O (stereo not given),–,53
CCC1=C(C)CN(C(=O)NCCc2ccc(S(=O)(=O)NC(=O)NC3CCC(C)CC3)cc2)C1=O (stereo not given),–,-27.7
O=C(O)/C=C/c1ccc(Cn2ccnc2)cc1,–,12.7
Cc1cc(C(C)(C)C)c(O)c(C(C)(C)C)c1,–,8.25
CSc1ccc(CNc2ncc(-c3cccc([N+](=O)[O-])c3)n2C)cc1,active: 0.708 µM,–
CN/C(=C\[N+](=O)[O-])NCCSCc1ccc(CN(C)C)o1,–,11.2
CCOc1ccc(NS(=O)(=O)c2ccc(N)cc2)nn1,–,23.9
O=c1cc(CO)occ1O,–,18.1
CNC(=S)N/N=C/c1ccc(SC)cc1,active: 14.1 µM,–
NC1CCN(c2cccc(Cl)n2)CC1,–,46.4
O=C(O)CCNC(=O)c1ccc(N=Nc2ccc(O)c(C(=O)O)c2)cc1,–,-2.42

Structure (SMILES),Potency,"activity change, negative = inhibition [%]"
CCCN1CCCC[C@H]1C(=O)Nc1c(C)cccc1C,–,-34.4
COc1cc(NCc2ccc3nc(N)nc(N)c3c2C)cc(OC)c1OC,–,2.34
CC(=O)Nc1ccc(OC(=O)c2ccccc2OC(C)=O)cc1,–,17.6
COc1ccc(C)cc1Nc1nc(C)nc2c1oc1ccccc12,active: 35.5 µM,–
CC(=O)NC(=O)c1ccccc1O,–,3.85
CN1CC(=O)N2[C@H](c3ccc4c(c3)OCO4)c3[nH]c4ccccc4c3C[C@@H]2C1=O,–,15.1
CCCCCCCCCCCCOCCOCCOCCOCCOCCOCCOCCOCCOCCO,–,15.1
Cc1c(C(=O)NN2CCCCC2)nn(-c2ccc(Cl)cc2Cl)c1-c1ccc(Cl)cc1,–,-11.9
C[C@](N)(Cc1ccc(O)c(O)c1)C(=O)O,–,-5.74
Cc1cc(C)c(CN2CCC3(Cc4ccccc4CNC3=O)C2)c(C)c1 (stereo not given),active: 1 µM,–
CCOC(=O)O[C@]1(C(=O)OCCl)CC[C@H]2[C@@H]3CCC4=CC(=O)C=C[C@]4(C)[C@H]3[C@@H](O)C[C@@]21C,–,32.2
COc1cc2c(Nc3ccc(Br)cc3F)ncnc2cc1OCC1CCN(C)CC1,–,-2.93
NS(=O)(=O)c1cc2c(cc1Cl)NC(C(Cl)Cl)NS2(=O)=O (stereo not given),–,10.8
CCC(=O)Nc1ccc(O)cc1,–,-14.9
CN[C@@H]1[C@H](O)[C@H](NC)[C@H]2O[C@@]3(O)C(=O)C[C@@H](C)O[C@H]3O[C@@H]2[C@H]1O,–,-55.4
CC(C)Nc1cccnc1N1CCN(C(=O)c2cc3cc(NS(C)(=O)=O)ccc3[nH]2)CC1,–,-34.2
Cc1onc(-c2ccccc2Cl)c1C(=O)N[C@@H]1C(=O)N2[C@@H]1SC(C)(C)[C@@H]2C(=O)O,–,17.4
NC(N)=NC(=O)Cc1c(Cl)cccc1Cl,–,-13
COC(=O)C1=C(C(=O)OC)C(c2ccccc2O)c2sc(=O)[nH]c2S1 (stereo not given),active: 44.7 µM,–
CN(N=O)C(=O)N[C@@H]1[C@@H](O)[C@H](O)[C@@H](CO)O[C@@H]1O,–,28.1
COc1ccc(O)cc1,–,50.2
COc1cc(-c2cc(C(=O)Nc3ccc(O)cc3)c3ccccc3n2)cc(OC)c1OC,active: 44.7 µM,–
CC1=C(O)C(=O)CO1,active: 25.1 µM,–
O=S(CC(O)c1ccccc1)c1ccccc1 (stereo not given),active: 28.2 µM,–
CC1=NN(c2ccccc2)C(=O)C1,–,6.61

Structure (SMILES),Potency,"activity change, negative = inhibition [%]"
CCN(CC)CCNC(=O)c1cc(Cl)c(N)cc1OC,–,-18
CN(C)C/C=C(/c1ccc(Br)cc1)c1cccnc1,–,9.24
O=C(Cc1cccc(F)c1)N1CCC2(CC1)NC(=O)N(c1cccc(F)c1)N2,active: 6.31 µM,–
CCCNc1nc(NCc2ccccc2OC)c2cnn(C)c2n1,active: 39.8 µM,–
CCOc1ccc2ccccc2c1C(=O)N[C@@H]1C(=O)N2[C@@H]1SC(C)(C)[C@@H]2C(=O)O,–,-4.07
NC/C=C/C(=O)O,–,50.8
Cc1ccc(Nc2nc(-c3cccc(N4C(=O)c5ccccc5C4=O)c3)cs2)cc1,active: 17.8 µM,–
CC(C)COc1cccc(C(=O)NC(=S)Nc2cccc(NC(=O)c3ccccc3Cl)c2)c1,active: 28.2 µM,–
COC(=O)C1=C(C)NC(C)=C(C(=O)O[C@@H]2CCCN(Cc3ccccc3)C2)[C@@H]1c1cccc([N+](=O)[O-])c1,–,-18.9
Cn1c(-c2ccc(-c3ccccc3)cc2)c[nH]c1=S,active: 39.8 µM,–
CC(C)[N+](C)(CCOC(=O)C1c2ccccc2Oc2ccccc21)C(C)C,–,-1.56
CN1CCC[C@@H]1Cc1c[nH]c2ccc(CCS(=O)(=O)c3ccccc3)cc12,–,12.3
COC(=O)c1ccccc1C(=O)c1ccc(OCCN2CCCCC2)cc1,–,-14.3
CC(C)OC(=O)c1cc2c(OCC(O)CNC(C)(C)C)cccc2[nH]1 (stereo not given),–,12.2
COc1cc(C(=S)N2CCOCC2)cc(OC)c1OC,–,12.6
O=C(c1ccncc1)N(c1ccc(N2CCOCC2)cc1)C(c1ccccc1)c1nc2ccccc2[nH]1 (stereo not given),active: 11.2 µM,–
Cc1cccc(OCC(=O)N2CCC3(CC2)NC(=O)N(c2cccc(F)c2)N3)c1,active: 2.24 µM,–
CC(=O)[C@H]1CC[C@H]2[C@@H]3C=CC4=CC(=O)CC[C@@]4(C)[C@@H]3CC[C@]12C,–,17.4
COc1ccc(/C=C/c2cc(C(=O)O)c3ccccc3n2)cc1OC,active: 17.8 µM,–
CC[C@]1(O)C[C@H]2CN(CCc3c([nH]c4ccccc34)[C@@](C(=O)OC)(c3cc4c(cc3OC)N(C=O)[C@H]3[C@@](O)(C(=O)OC)[C@H](OC(C)=O)[C@]5(CC)C=CCN6CC[C@]43[C@@H]65)C2)C1,–,23.3
CCc1nnc(N/N=C/c2c(C)[nH]c3ccccc23)n1N,active: 31.6 µM,–
N#Cc1cc(NC(=O)C(=O)O)c(Cl)c(NC(=O)C(=O)O)c1,–,-22.5
O=C1NC(=Nc2ccc(Cl)cc2)/C(=C/c2ccco2)S1,active: 25.1 µM,–
COc1ccc(OC(=O)N(CC(=O)O)Cc2ccc(OCCc3nc(-c4ccccc4)oc3C)cc2)cc1,–,-34.3
CCOc1cc(OCC)c(C(=O)CCC(=O)O)cc1OCC,–,35.5

# Filtered by structure: the entries above containing a thiophene ring, fused or not (four)
Structure (SMILES),Potency,"activity change, negative = inhibition [%]"
CC(C1CC2CCC1C2)n1c(-c2cccs2)n[nH]c1=S (stereo not given),active: 44.7 µM,–
O=C(NCC1CN(c2ccc(N3CCOCC3=O)cc2)C(=O)O1)c1ccc(Cl)s1 (stereo not given),–,19.7
C=CCSc1nc2sc3c(c2c(=O)n1CC)CCc1ccccc1-3,active: 7.08 µM,–
COC(=O)C(c1ccccc1Cl)N1CCc2sccc2C1 (stereo not given),–,-18.4
